Values quoted from earlier work as cited in patent publication US20050065732A1, “Matrix methods for quantitatively analyzing and assessing the properties of botanical samples” (priority 2001, published 2005).
At least one structure is not confirmed: it was looked up by name or label, or the drawing left a doubt.

Experiments:
NF-kappa B = settings: rat alveolar macrophages
[1] = system: kainic acid-induced chronic seizures in rats; settings: intraperitoneal injection

Compound | signal-induced NF-kappa B activation (NF-kappa B) | alpha- and beta-tublin mRNAs [1] | hippocampal c-fos mRNA induction [1]
COc1ccc2cc1Oc1ccc(cc1)C[C@H]1c3cc(c(OC)cc3CCN1C)Oc1c(OC)c(OC)cc3c1[C@H](C2)N(C)CC3 [Tetrandrine] | inhibited | – | –
O=C1NC(=O)C(c2ccccc2)(c2ccccc2)N1 [diphenylhydantoin sodium] | – | reduced | reduced
